This passage reports binding results from article PMC6965636.

Amino acid sequences for entries named in this document (tags omitted).
UniProt O15379: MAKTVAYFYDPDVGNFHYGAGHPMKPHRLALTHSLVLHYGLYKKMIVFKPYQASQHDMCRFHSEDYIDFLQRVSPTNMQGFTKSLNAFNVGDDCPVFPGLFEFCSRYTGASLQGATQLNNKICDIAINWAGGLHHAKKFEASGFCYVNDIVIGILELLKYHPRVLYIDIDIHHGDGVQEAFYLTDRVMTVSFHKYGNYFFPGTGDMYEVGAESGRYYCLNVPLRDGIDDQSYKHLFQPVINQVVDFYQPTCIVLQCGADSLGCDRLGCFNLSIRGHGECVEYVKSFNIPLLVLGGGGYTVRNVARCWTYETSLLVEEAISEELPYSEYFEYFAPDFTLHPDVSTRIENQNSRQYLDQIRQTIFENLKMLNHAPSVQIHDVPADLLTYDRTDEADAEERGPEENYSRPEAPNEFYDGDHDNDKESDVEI
UniProt P42224: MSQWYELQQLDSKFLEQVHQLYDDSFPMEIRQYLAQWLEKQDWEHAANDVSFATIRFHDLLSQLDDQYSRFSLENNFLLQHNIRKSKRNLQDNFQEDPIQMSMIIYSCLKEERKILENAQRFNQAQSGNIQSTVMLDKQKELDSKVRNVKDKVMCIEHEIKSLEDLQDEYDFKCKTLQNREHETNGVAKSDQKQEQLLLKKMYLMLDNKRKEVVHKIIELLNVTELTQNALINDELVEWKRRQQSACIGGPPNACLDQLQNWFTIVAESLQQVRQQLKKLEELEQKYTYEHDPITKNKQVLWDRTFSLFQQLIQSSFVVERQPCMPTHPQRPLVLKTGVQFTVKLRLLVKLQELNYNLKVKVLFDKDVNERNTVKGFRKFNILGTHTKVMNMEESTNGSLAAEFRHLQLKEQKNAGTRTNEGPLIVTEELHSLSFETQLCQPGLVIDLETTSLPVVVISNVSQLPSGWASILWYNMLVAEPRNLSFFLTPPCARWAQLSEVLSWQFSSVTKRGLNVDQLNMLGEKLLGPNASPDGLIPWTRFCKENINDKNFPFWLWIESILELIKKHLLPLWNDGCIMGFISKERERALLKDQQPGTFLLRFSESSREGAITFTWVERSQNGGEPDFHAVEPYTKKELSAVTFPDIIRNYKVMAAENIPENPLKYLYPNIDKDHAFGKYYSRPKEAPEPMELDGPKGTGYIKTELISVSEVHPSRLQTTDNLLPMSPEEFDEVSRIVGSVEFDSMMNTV

Results are given in words; binding and its absence hold for the method and conditions named. In cells and extracts the contact can be indirect. Some binding calls cover weakened binding; strength is not graded here.

Test [1] has as its target histone deacetylase 3 (HDAC3), endogenous (human (endogenous in SMMC-7721)) (UniProt O15379). The test is described as follows: co-IP; endogenous proteins; SMMC-7721 and HepG2 cells, whole lysates and cytoplasmic and nuclear fractions of SMMC-7721, also of SMMC-7721 ectopically expressing STAT1; lysis buffer 1 mM EDTA, 40 mM Tris-HCl pH 8, 100 mM NaCl, 0.5% NP-40, 1% Triton X-100; primary antibodies at 4 °C overnight, protein A/G-agarose beads, Western blot.

The target of test [2] is signal transducer and activator of transcription 1 (STAT1), endogenous (human (endogenous in SMMC-7721 and HepG2)) (UniProt P42224). The test is described as above.

B1: Transketolase (TKT), endogenous (enzyme, UniProt P29401 1-623)
chain: MESYHKPDQQKLQALKDTANRLRISSIQATTAAGSGHPTSCCSAAEIMAVLFFHTMRYKSQDPRNPHNDRFVLSKGHAAPILYAVWAEAGFLAEAELLNLRKISSDLDGHPVPKQAFTDVATGSLGQGLGAACGMAYTGKYFDKASYRVYCLLGDGELSEGSVWEAMAFASIYKLDNLVAILDINRLGQSDPAPLQHQMDIYQKRCEAFGWHAIIVDGHSVEELCKAFGQAKHQPTAIIAKTFKGRGITGVEDKESWHGKPLPKNMAEQIIQEIYSQIQSKKKILATPPQEDAPSVDIANIRMPSLPSYKVGDKIATRKAYGQALAKLGHASDRIIALDGDTKNSTFSEIFKKEHPDRFIECYIAEQNMVSIAVGCATRNRTVPFCSTFAAFFTRAFDQIRMAAISESNINLCGSHCGVSIGEDGPSQMALEDLAMFRSVPTSTVFYPSDGVATEKAVELAANTKGICFIRTSRPENAIIYNNNEDFQVGQAKVVLKSKDDQVTVIGAGVTLHEALAAAELLKKEKINIRVLDPFTIKPLDRKLILDSARATKGRILTVEDHYYEGGIGEAVSSAVVGEPGITVTHLAVNRVPRSGKPAELLKMFGIDRDAIAQAVRGLITKA
With B1, the binding result in test [1] and in test [2] was “binds” in each case.
